Reference: EP1198477B1, “PROLACTIN-RELEASING PEPTIDE AND USE IN TREATING PAIN” (Oy Juvantia Pharma Ltd, priority 1999, dated 2004)
“Also recorded” adds a separate entry of the source. At least one peptide structure holds a part that was inferred or is arguable (an end, a ring closure or a residue). Residues, ends and D or L forms follow the SMILES beside them.

How the values were obtained:
Type in all cases: in vivo
neuropathic rats [1] = test: Neuropathic pain model (L5/L6 spinal nerve ligation, Kim and Chung), intrathecal administration: cold and mechanical allodynia
neuropathic rats [2] = test: Tactile allodynia (calibrated monofilaments) in neuropathic rats after injection into NTS or PAG; conditions: neuropathic animals; for antiallodynia (Friedman ANOVA): NTS; for attenuation of tactile allodynia: PAG
Rats [3] = test: Heat-evoked blood pressure increase and hindlimb withdrawal latency after intracerebral injections; conditions: microinjection 0.5 nmol in the CVLM, five min following injection
Rats [4] = test: Blood pressure measurements after i.v. injections; conditions: intravenous; for increase in heart rate / maximal increase in diastolic pressure / maximal increase in systolic arterial blood pressure / heart rate after injection: PrRP20 at 220 µg/kg, PrRP8 at 18-126 µg/kg; for maximal increase in diastolic pressure / maximal increase in systolic arterial blood pressure: anesthetized rats; for heart rate after injection: from 360 bpm
[5] = neuropathic rats, i.t. doses of 5 or 10 nmol

Row | Compound | effect on pain in neuropathic pain model (neuropathic rats [1]; intrathecal injection) | antiallodynia (Friedman ANOVA) (neuropathic rats [2]; 0.2 nmol) | antiallodynia (Friedman ANOVA) (neuropathic rats [2]; 0.5 nmol) | antiallodynia (Friedman ANOVA) (neuropathic rats [2]; 5 nmol) | antiallodynic effect (neuropathic rats [2]; PAG (central grey), dose not stated) | attenuation of tactile allodynia (neuropathic rats [2]; 0.2 nmol) | attenuation of tactile allodynia (neuropathic rats [2]; 0.5 nmol) | attenuation of tactile allodynia (antiallodynic effect) (neuropathic rats [2]; in the NTS, doses 0.2 to 5 nmol) | heat-evoked blood pressure increase (somato-autonomic reflex) (Rats [3]) | latency of heat-evoked hindlimb withdrawal (somatomotor reflex) (Rats [3]) | blood pressure (Rats [4]; 220 µg/kg, rat) | increase in heart rate (Rats [4]) | maximal increase in diastolic pressure (Rats [4]) [mmHg] | maximal increase in systolic arterial blood pressure (Rats [4]) [mmHg] | heart rate after injection (Rats [4]) | cold allodynia (neuropathic rats [1]; [5]) | mechanical allodynia (neuropathic rats [1]; [5])
1 | CC[C@H](C)[C@H](NC(=O)CNC(=O)[C@H](CCCNC(=N)N)NC(=O)CNC(=O)[C@H](C)NC(=O)[C@H](Cc1ccc(O)cc1)NC(=O)[C@H](Cc1c[nH]c2ccccc12)NC(=O)[C@H](C)NC(=O)[C@@H]1CCCN1C(=O)[C@H](CC(N)=O)NC(=O)[C@@H](NC(=O)[C@H](CC(=O)O)NC(=O)[C@@H]1CCCN1C(=O)[C@@H](N)[C@@H](C)O)[C@@H](C)CC)C(=O)N[C@@H](CCCNC(=N)N)C(=O)N1CCC[C@H]1C(=O)N[C@H](C(=O)NCC(=O)N[C@@H](CCCNC(=N)N)C(=O)N[C@@H](Cc1ccccc1)C(N)=O)C(C)C [PrRP20] (H-TPDINPAWYAGRGIRPVGRF-NH2) | no effect | but not at the dose of 0.2 nmol | significant | significant | significant antiallodynic effect | but not at the dose of 0.2 nmol | significant attenuation | dose-dependend attenuation of tactile allodynia; also recorded: significant antiallodynic effect; also recorded: dose-dependent antiallodynic effect | higher; also recorded: facilitates heat-evoked blood pressure response | decrease in latency; also recorded: facilitation of heat-evoked hindlimb withdrawal response | rapid increase in blood pressure | 30-50 bpm | ≤ 40 | ≤ 70 | 390-420 bpm | – | –
2 | CC[C@H](C)[C@H](NC(=O)CN)C(=O)N[C@@H](CCCNC(=N)N)C(=O)N1CCC[C@H]1C(=O)N[C@H](C(=O)NCC(=O)N[C@@H](CCCNC(=N)N)C(=O)N[C@@H](Cc1ccccc1)C(N)=O)C(C)C [PrRP8] (H-GIRPVGRF-NH2) | – | – | – | – | – | – | – | – | – | – | – | 30-50 bpm | ≤ 30 | ≤ 60 | 390-420 bpm | did not change | did not change
